Results deposited as PubChem BioAssay AID1259405 (NCATS, 2018)
The whole screen tested about 50,000 reagents; below is a part drawn at random. About 4,000 of them (8%) were called active. 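Mouse siRNA library applied to hamster cells; one well for each siRNA.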 Entries without a mark were called inactive. The numbers tell different reagents against one gene apart.

- Aim: 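Knock-downs that lift recombinant protein yield in hamster ovary cells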 (primary screen)
- Cell system: Chinese hamster CHO-K1 ovary cells with stable secreted eGFP expression
- Knock-down reagent: single siRNA against mouse genes, 0.8 pmol siRNA per well (2 µl of 400 nM stock)
- Timing: 3 days
- Measured: 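Percent of the per-plate non-targeting control median for intracellular GFP per well by laser scanning cytometry and for cell viability by ATP luminescence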
- Scale: GFP, % of control: higher = more GFP per well, higher productivity; viability (ATP), % of control: higher = more viable cells (more ATP)
- Hit rule: 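a knock-down is called active if GFP reaches 120% or more of non-targeting control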

gene symbol	reagent	GFP, % of control	viability (ATP), % of control
Castor1 (GeneID 71962)	1	148 (active)	112
Castor1 (GeneID 71962)	2	79.5	103
Castor1 (GeneID 71962)	3	152 (active)	126
Castor1 (GeneID 71962)	4	93.4	92.4
Castor1 (GeneID 71962)	5	143 (active)	87.5
Castor1 (GeneID 71962)	6	94.2	115
Zmynd15 (GeneID 574428)	1	46.1	50.3
Zmynd15 (GeneID 574428)	2	79.4	53.9
Zmynd15 (GeneID 574428)	3	103	80.1
Adpgk (GeneID 72141)	1	51	68.6
Adpgk (GeneID 72141)	2	98.5	69.9
Adpgk (GeneID 72141)	3	108	110
Ifnz (GeneID 319146)	1	45	63.3
Ifnz (GeneID 319146)	2	68.7	58.6
Ifnz (GeneID 319146)	3	91.6	64.7
Ceacam20 (GeneID 71601)	1	28.7	15.3
Ceacam20 (GeneID 71601)	2	120	89.6
Ceacam20 (GeneID 71601)	3	72.4	74.9
Cts7 (GeneID 56092)	1	102	91.1
Cts7 (GeneID 56092)	2	71	66.7
Cts7 (GeneID 56092)	3	70.4	89
Tmem232 (GeneID 381107)	1	56.5	76.3
Tmem232 (GeneID 381107)	2	73.4	64.8
Tmem232 (GeneID 381107)	3	55.2	36.3
Or2ag17 (GeneID 258180)	1	57.6	82.1
Or2ag17 (GeneID 258180)	2	91.9	64.8
Or2ag17 (GeneID 258180)	3	71.6	82.5
Aifm2 (GeneID 71361)	1	72	70.6
Aifm2 (GeneID 71361)	2	124 (active)	66.2
Aifm2 (GeneID 71361)	3	75.6	81.4
Rtl6 (GeneID 223732)	1	59.9	77.8
Rtl6 (GeneID 223732)	2	82.3	114
Rtl6 (GeneID 223732)	3	113	147
Macrod1 (GeneID 107227)	1	60.9	74.4
Macrod1 (GeneID 107227)	2	52.7	76.9
Macrod1 (GeneID 107227)	3	89.6	88.2
Pcdhgb6 (GeneID 93703)	1	65.5	59.7
Pcdhgb6 (GeneID 93703)	2	85.9	74.1
Pcdhgb6 (GeneID 93703)	3	4.93	8.2
Epo (GeneID 13856)	1	62.1	71.6
Epo (GeneID 13856)	2	97.5	88.7
Epo (GeneID 13856)	3	131 (active)	123
Dhrs7 (GeneID 66375)	1	121 (active)	93.8
Dhrs7 (GeneID 66375)	2	57.4	73.6
Dhrs7 (GeneID 66375)	3	79.1	61.9
Zfp329 (GeneID 67230)	1	81.1	79.8
Zfp329 (GeneID 67230)	2	102	72
Zfp329 (GeneID 67230)	3	87.3	84.7
Themis (GeneID 210757)	1	85.9	81.9
Themis (GeneID 210757)	2	93.2	78.8
Themis (GeneID 210757)	3	96.3	89.9
Abca2 (GeneID 11305)	1	103	114
Abca2 (GeneID 11305)	2	122 (active)	106
Abca2 (GeneID 11305)	3	106	123
Tmem74 (GeneID 239408)	1	89.2	69.3
Tmem74 (GeneID 239408)	2	75.2	79.1
Tmem74 (GeneID 239408)	3	118	59.5
Kiss1 (GeneID 280287)	1	61.7	72
Kiss1 (GeneID 280287)	2	49	65.8
Kiss1 (GeneID 280287)	3	138 (active)	80.4
Pak5 (GeneID 241656)	1	80.6	69.6
Ssbp2 (GeneID 66970)	1	85.3	98.6
Ssbp2 (GeneID 66970)	2	94.3	92.1
Or52e8 (GeneID 257910)	1	82	51.3
Or52e8 (GeneID 257910)	2	57.4	67.3
Or52e8 (GeneID 257910)	3	77.2	80.2
Sypl2 (GeneID 17306)	1	52.3	76.7
Sypl2 (GeneID 17306)	2	75.6	63.9
Sypl2 (GeneID 17306)	3	108	86.4
Elac2 (GeneID 68626)	1	127 (active)	138
Elac2 (GeneID 68626)	2	70.8	99.2
Elac2 (GeneID 68626)	3	134 (active)	130
Dbndd2 (GeneID 52840)	1	57.5	84.1
Dbndd2 (GeneID 52840)	2	77.7	94.5
Dbndd2 (GeneID 52840)	3	60	61
Cnih1 (GeneID 12793)	1	75.3	72.3
Cnih1 (GeneID 12793)	2	65.4	64.7
Cnih1 (GeneID 12793)	3	81.4	79.2
Phlda2 (GeneID 22113)	1	67.6	68.7
Phlda2 (GeneID 22113)	2	79.8	76.1
Phlda2 (GeneID 22113)	3	84.4	102
Pttg1 (GeneID 30939)	1	82	91.1
Pttg1 (GeneID 30939)	2	67.2	76.7
Pttg1 (GeneID 30939)	3	70.3	87.9

Individual results from the list:
Entry of Zfp329 (GeneID 67230) #1 under “viability (ATP), % of control”: 79.8
Under “viability (ATP), % of control”, Sypl2 (GeneID 17306) #1 has 76.7
Macrod1 (GeneID 107227) #3, GFP, % of control = 89.6
Adpgk (GeneID 72141) #2, viability (ATP), % of control → 69.9
